Source: ChEMBL document CHEMBL3988442, “University of Dundee, Small-Polar-MMV Screening Library” (2021).

The filed quantity is “Percent Effect” (%).
The controls that fix the scale are not given in the record; negative values are as filed.
The compounds are a random part of those screened.

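Assay of Toxoplasma gondii numbers, read through their beta-galactosidase reporter with a colour substrate. Compounds at 10 µM. The record gives no direction; the compounds picked for IC50 retests had high values, so higher reads as fewer parasites. Of about 67,000 compounds tested this way, about 260 (0.38%) reached 50% or more in at least one test.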

compound | Percent Effect
O=C(NCCc1cnccn1)c1ccc(S(=O)(=O)NC2CCC2)cc1 | 0.3937
O=C(O)C(F)(F)F.O=C(c1ccc[nH]1)N1CCC2(CCCN2Cc2cccnc2)CC1 | -5.123
O=C(NCCC1CN(C2CCCC2)CCO1)c1c[nH]c(=O)[nH]c1=O (stereo unspecified) | 15.53
Cc1occc1C(=O)NCC(O)c1ccc(Cl)s1 (stereo unspecified) | 7.599
O=C(O)C(F)(F)F.[H][C@@]12OCCN(c3ncc(F)cn3)[C@@]1([H])CC[C@H]2OCCN1CCCC1 | 11.88
[H][C@@]12CCN(C[C@@H]1CN1CCC(C)CC1)[C@@H](CNC(=O)Nc1ccsc1)C2 | -0.9009
Cc1nc(CN2C(=O)COC3(CCN(Cc4ccsc4)CC3)C2C)cs1.O=C(O)C(F)(F)F (stereo unspecified) | -15.82
COCCNC(=O)Cn1ccc2cccc(OC)c21 | 12.37
OCCN(Cc1ccccc1)Cc1nc(-c2ccc3c(c2)OCO3)no1 | -8.57
COc1ccc(CNCC2CC2)cc1F | 0.8633
O=C1NC2(CCc3ccccc31)CCN(Cc1cccnc1)C2 (stereo unspecified) | 11.46
NCc1csc(CCc2ccccc2)n1 | 5.605
Cc1cc(C(C)(O)CNC(=O)c2ccc(Br)o2)c(C)o1 (stereo unspecified) | -8.974
CSc1nccc(N2CCC3(CCCN(Cc4cccc(C)c4)C3)C2)n1 (stereo unspecified) | -6.765
CC(C)CC(NC(=O)c1ccco1)c1nc2cccnc2n1C (stereo unspecified) | 1.901
CCc1nc(C2CCCN2C(=O)CCCn2cccn2)no1 (stereo unspecified) | -4.338
CC(C)CN1CC2(CCN(C(=O)c3cn4cccnc4n3)CC2)CC1=O | -17.54
COc1cccc(CCNC(=O)CN2CCN(C)CC2C)c1 (stereo unspecified) | 0.4308
CN(Cc1ccc2c(c1)OCCO2)Cn1nc(C(C)(C)C)ccc1=O | 3.523
O=C(c1occc1CN1C(=O)Cc2ccccc21)N1CC(O)C1 | -21.7
CC(C)c1cc(CN2CCNCC2)no1 | 6.502
Cn1ccc2cc(C(=O)NC3CCS(=O)(=O)C3)ccc21 (stereo unspecified) | 8.462
CC(C)(O)CCc1cccc(C(=O)NCCC2=CSC3=NCCCN23)c1 | 4.545
Cc1ccc(C)c(-n2cc(CN3CC[C@@H](O)C3)c(-c3ccccc3)n2)c1 | -2.304
Cn1cccc1C(=O)N1CCCCC12CC(=O)N(c1cccnc1)C2.O=C(O)C(F)(F)F (stereo unspecified) | 2.586
Cc1ccc(C(=O)O)cc1CNC(=O)CN1CC(C)(C)[C@@](C)(O)C1 | -8.841
COCCN(Cc1ccccc1)C(=O)c1csc(-c2nnc[nH]2)n1 | 5.717
O=C1CC(N(C(=O)c2ccc(Cl)c(Cl)c2)C2CC2)C(=O)N1 (stereo unspecified) | -33.06
Cn1nc(COc2cccnc2)c2c1CCN(c1cnccn1)C2.O=CO.O=CO | -0.1614
Cc1ccc(CN2CCN(c3ncccc3C(N)=O)CC2CCO)cc1 (stereo unspecified) | 1.1
Cc1ccoc1C(=O)NCCOc1ncc(Cl)cc1Cl | 2.617
N#Cc1ccc(OC2CCN(C(=O)c3ccccc3Cl)CC2)nc1 | 2.127
CN1CCC(NCC(O)c2cccc(OCc3ccccc3)c2)CC1 (stereo unspecified) | 74.89
CN(C)CCOc1ccc(N(C)S(=O)(=O)c2cnn(C)c2)cc1 | 6.968
CC(Cn1ccnc1)NCc1nncn1C1CCCCC1 (stereo unspecified) | 5.549
O=C1OCCN1CCOc1nc(-c2ccccc2Cl)no1 | 2.189
O=C(CNC(=O)N1CCc2c([nH]c3ccc(Cl)cc23)C1)NC1CCCC1 | -1.232
COCC(C)NC(=O)CSc1ccc(F)c(Cl)c1 (stereo unspecified) | 28.07
CC1CCCCN1Cc1nc(C2CC2)no1 (stereo unspecified) | -10.66
CS(=O)(=O)NCCNCc1ccc(Br)s1.Cl | -8.975
O=C(c1ccc(F)c(F)c1)N1CCCCC1c1nc[nH]n1 (stereo unspecified) | 15.59
Cc1nn(C)c2nc(O)cc(C(F)(F)C(F)(F)F)c12 | -2.291
O=C(CN1CCOC(Cn2cncn2)C1)NCc1cccs1 (stereo unspecified) | 17.83
[H][C@@]12COC[C@]1(C(=O)N(C)Cc1ccccn1)CN(Cc1cnn(C)c1)C2 | -0.2137
COc1cccc(CN(C)C(=O)c2csc(-c3nnc[nH]3)n2)c1 | -15.06
CCCN(CCc1cccc(F)c1)c1ccc2nnnn2n1 | -18.61
Cc1cc(C)n(CC(=O)N(C)Cc2csc(-c3cccs3)n2)c(=O)n1 | -0.9912
Cc1ccc(NC(=O)N(C)CC(O)COCCOC(C)C)c(Br)c1 (stereo unspecified) | 0.8115
CCOC(=O)CN1CCC(C(=O)c2cc(F)ccc2F)CC1 | -14.82
CC(Cn1cncn1)NCCN1CCc2ccccc21 (stereo unspecified) | -63.08
O=C(O)C(F)(F)F.O=C1COC2(CCN(C(=O)C3CC=CC3)CC2)CN1Cc1cccnc1 | 2.013
CC(C)C(=O)N1CCN(Cc2cnn(C)c2)CC2(CC(=O)N(C)C2)C1.O=C(O)C(F)(F)F (stereo unspecified) | 0.8629
COCCC(=O)NCC1Cn2nnc(-c3cccc(F)c3)c2CO1 (stereo unspecified) | 9.69
CN(CC1CCCCO1)S(=O)(=O)c1cccc(C(=O)N2CCOCC2)c1 (stereo unspecified) | -21.23
N#Cc1ccc(N2CCN(c3cnccn3)CC2)c(C(F)(F)F)c1 | 2.21
CC(=O)N1CCCC1c1cccc(Cc2ccc(F)cc2)n1 (stereo unspecified) | 0.9429
CCN(CC(=O)NC)C(=O)c1sc(Cc2ccccc2)nc1C | 10.59
CC(C)CNC(=O)c1cc2c(s1)CCN2Cc1cccnc1 | -3.213
CC(c1nc(C2CC2)no1)N1CCN(CCn2ccccc2=O)CC1 (stereo unspecified) | -1.061
CCOc1ncccc1CNc1nnc(C)c(C)c1C#N | -3.173
Cn1c(CN2CCN(CC3CCCO3)CC2)nc2ccccc21 (stereo unspecified) | 22.02
O=C(O)C(F)(F)F.[H][C@@]12CCCO[C@]1([H])[C@@H](Oc1ccccn1)CN2C(=O)c1ccoc1C | -0.253
Cc1ccc2c(n1)N(C)CCN(C(=O)NC(C)C)C2.O=C(O)C(F)(F)F | 8.845

4 of the entries, repeated:

With O=C(c1ccc(F)c(F)c1)N1CCCCC1c1nc[nH]n1 (stereo unspecified) the screen gave 15.59%.
With O=C(O)C(F)(F)F.[H][C@@]12OCCN(c3ncc(F)cn3)[C@@]1([H])CC[C@H]2OCCN1CCCC1 the screen gave 11.88%.
With O=C(NCCc1cnccn1)c1ccc(S(=O)(=O)NC2CCC2)cc1 the screen gave 0.3937%.
With Cc1cc(C)n(CC(=O)N(C)Cc2csc(-c3cccs3)n2)c(=O)n1 the screen gave -0.9912%.